{"source": "PubChem BioAssay AID1159578 (Peter MacCallum Cancer Centre, 2015)", "assay": "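Genome-wide hunt for genes controlling movement of lymphatic endothelial cells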 (primary screen)", "cell system": "human lymphatic endothelial cells", "knock-down reagent": "siRNA pool against human genes, 40 nM", "duration": "48 h after transfection", "measurement": "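High-content imaging of dye-stained cells in a scratch assay measures filled wound area and nuclei per well; duplicate means given as ratio to mock and robust z-score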", "reading the numbers": "migration robust z-score: higher = faster migration into the scratch; nuclei per well: higher = more cells in the well", "hit rule": "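Migration changed when robust z exceeds 2 or falls below -2 and mean nuclei number is at least 3300; otherwise not called changed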", "calls": "active = migration changed; inactive = no migration change, or too few cells", "note": "The whole screen tested about 18,000 reagents; this is a part drawn at random. About 1,030 of all reagents (5.7%) were called active. 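Inactive calls also include pools with fewer than 3300 nuclei, whose migration was not assessed.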 The raw values are shown without normalisation. Entries without a mark were called inactive. Not all columns of the deposit are shown."}
{"target gene":"HABP4 (hyaluronan binding protein 4)","migration robust z-score":0.78,"migration class with cell-count check":"migration z between -2 and 2; enough cells","nuclei per well, duplicate mean":6106}
{"target gene":"CHI3L2 (chitinase 3 like 2)","migration robust z-score":1.19,"migration class with cell-count check":"migration z between -2 and 2; enough cells","nuclei per well, duplicate mean":7156}
{"target gene":"AFG2B (AAA ATPase AFG2B)","migration robust z-score":0.68,"migration class with cell-count check":"migration z between -2 and 2; enough cells","nuclei per well, duplicate mean":6936}
{"target gene":"BBOF1 (basal body orientation factor 1)","migration robust z-score":1.2,"migration class with cell-count check":"migration z between -2 and 2; enough cells","nuclei per well, duplicate mean":6834}
{"target gene":"PDZD2 (PDZ domain containing 2)","migration robust z-score":-0.31,"migration class with cell-count check":"migration z between -2 and 2; enough cells","nuclei per well, duplicate mean":5374}
{"target gene":"KRT33A (keratin 33A)","migration robust z-score":-0.04,"migration class with cell-count check":"migration z between -2 and 2; enough cells","nuclei per well, duplicate mean":3955}
{"target gene":"MTIF2 (mitochondrial translational initiation factor 2)","migration robust z-score":1.5,"migration class with cell-count check":"migration z between -2 and 2; enough cells","nuclei per well, duplicate mean":6175}
{"target gene":"CWC22 (CWC22 spliceosome associated protein)","migration robust z-score":"-3.01 (active)","migration class with cell-count check":"migration z below -2; enough cells","nuclei per well, duplicate mean":4974}
{"target gene":"LSM5","migration robust z-score":-0.2,"migration class with cell-count check":"migration z between -2 and 2; enough cells","nuclei per well, duplicate mean":5674}
{"target gene":"EID2B (EP300 interacting inhibitor of differentiation 2B)","migration robust z-score":-0.78,"migration class with cell-count check":"migration z between -2 and 2; enough cells","nuclei per well, duplicate mean":6736}
{"target gene":"ATCAY (ATCAY kinesin light chain interacting caytaxin)","migration robust z-score":0.98,"migration class with cell-count check":"migration z between -2 and 2; enough cells","nuclei per well, duplicate mean":5718}
{"target gene":"BAGE5 (BAGE family member 5)","migration robust z-score":-0.1,"migration class with cell-count check":"migration z between -2 and 2; enough cells","nuclei per well, duplicate mean":6212}
{"target gene":"LTBP1 (latent transforming growth factor beta binding protein 1)","migration robust z-score":-0.54,"migration class with cell-count check":"migration z between -2 and 2; enough cells","nuclei per well, duplicate mean":6552}
{"target gene":"E2F8 (E2F transcription factor 8)","migration robust z-score":0.34,"migration class with cell-count check":"migration z between -2 and 2; enough cells","nuclei per well, duplicate mean":5872}
{"target gene":"GNAI2 (G protein subunit alpha i2)","migration robust z-score":-0.75,"migration class with cell-count check":"migration z between -2 and 2; enough cells","nuclei per well, duplicate mean":5611}
{"target gene":"MIS18A (MIS18 kinetochore protein A)","migration robust z-score":"2.69 (active)","migration class with cell-count check":"migration z above 2; enough cells","nuclei per well, duplicate mean":6282}
{"target gene":"CUL1 (cullin 1)","migration robust z-score":"2.7 (active)","migration class with cell-count check":"migration z above 2; enough cells","nuclei per well, duplicate mean":5889}
{"target gene":"SKP2 (S-phase kinase associated protein 2)","migration robust z-score":-1.35,"migration class with cell-count check":"migration z between -2 and 2; enough cells","nuclei per well, duplicate mean":5219}
{"target gene":"DSG4 (desmoglein 4)","migration robust z-score":-0.52,"migration class with cell-count check":"migration z between -2 and 2; enough cells","nuclei per well, duplicate mean":4532}
{"target gene":"TRIP13 (thyroid hormone receptor interactor 13)","migration robust z-score":-0.7,"migration class with cell-count check":"migration z between -2 and 2; enough cells","nuclei per well, duplicate mean":6330}
{"target gene":"TMEM187 (transmembrane protein 187)","migration robust z-score":-0.38,"migration class with cell-count check":"migration z between -2 and 2; enough cells","nuclei per well, duplicate mean":5612}
